Results as given in patent US5202339A, “Hydantoin derivatives” (Mochida Pharmaceutical Co., Ltd., priority 1987, dated 1993).
Some of these results come from one statement about several compounds together.

The molecules below were run on ICR strain mice (assay: acute toxicity in mice (Experimental Example 3)). Settings: 1 g/kg, oral, groups of 5 ICR mice.
Assay type: in vivo
Description: Hydantoin derivatives of the present invention were examined for acute toxicity.
With `O=C1CN(S(=O)(=O)c2oc3c(F)cccc3c2Br)C(=O)N1` [Compound 49, 1-(3-bromo-7-fluorobenzo[b]furan-2-yl-sulfonyl)hydantoin] the “acute toxicity: change observed over the one-week period after administration” value (“acute toxicity: change observed” for short) was “no change was observed”.
For `O=C1CN(S(=O)(=O)c2oc3ccccc3c2Cl)C(=O)N1` [Compound 47, 1-(3-chlorobenzo[b]furan-2-ylsulfonyl)hydantoin], the “acute toxicity: change observed” value was “no change was observed”.
With `COc1ccc2cc(S(=O)(=O)N3CC(=O)NC3=O)ccc2c1[N+](=O)[O-]` [Compound 15, 1-(6-methoxy-5-nitronaphthalen-2-yl-sulfonyl)hydantoin] the “acute toxicity: change observed” value was “no change was observed”.
With `O=C1CN(S(=O)(=O)c2cc3cccc(F)c3o2)C(=O)N1` [Compound 48, 1-(7-fluorobenzo[b]furan-2-ylsulfonyl)hydantoin] the “acute toxicity: change observed” value was “no change was observed”.
`O=C1CN(S(=O)(=O)c2cc3ccccc3s2)C(=O)N1` [Compound 16, 1-(benzo[b]thiophen-2-ylsulfonyl)hydantoin] was tested, and the “acute toxicity: change observed” value was “no change was observed”.
`Cc1ccc2cc(S(=O)(=O)N3CC(=O)NC3=O)ccc2c1[N+](=O)[O-]` [Compound 13, 1-(6-methyl-5-nitronaphthalen-2-yl-sulfonyl)hydantoin] was tested, and the “acute toxicity: change observed” value was “no change was observed”.
For `Cc1ccc2ccc(S(=O)(=O)N3CC(=O)NC3=O)cc2c1` [Compound 14, 1-(7-methylnaphthalen-2-ylsulfonyl)hydantoin], the “acute toxicity: change observed” value was “no change was observed”.
For `O=C1CN(S(=O)(=O)c2sc3ccccc3c2Cl)C(=O)N1` [Compound 17, 1-(3-chlorobenzo[b]thiophen-2-yl-sulfonyl)hydantoin], the “acute toxicity: change observed” value was “no change was observed”.
